Results are given in words; binding and its absence hold for the method and conditions named. Binding seen in cells or lysates may run through a third protein. Some entries that bind do so weakly or less than the wild type.
What was measured:
[1] = molecular target: T1, PF4–YFPn (full-length / intact platelet factor 4) (UniProt P02776); assay: split reporter; HT-BiFC screen: HTC-75 cells stably expressing PF4–YFPn bait infected with YFPc-tagged prey retroviruses from the human ORFeome v7.1 library (18,414 ORFs); fluorescent cells sorted in rounds until > 90% positive, preys identified by Illumina/Solexa sequencing
T1 sequence: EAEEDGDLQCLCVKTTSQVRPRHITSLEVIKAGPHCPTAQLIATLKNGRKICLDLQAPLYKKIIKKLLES

[2] = molecular target: T2, truncated PF4–YFPn with 1–31 aa signal peptide deleted (UniProt P02776); assay: split reporter; BiFC of single pairs: HTC75 cells expressing PF4–YFPn (full-length or truncated) and a YFPc-tagged partner, yellow fluorescence read by flow cytometry (positive rate); non-fused YFPc as negative control; n = 3
T2 sequence: T1 sequence

B1: TGFBRIII–YFPc (type III TGFβ receptor) (receptor, UniProt Q03167 21-851)
chain: GPEPGALCELSPVSASHPVQALMESFTVLSGCASRGTTGLPQEVHVLNLRTAGQGPGQLQREVTLHLNPISSVHIHHKSVVFLLNSPHPLVWHLKTERLATGVSRLFLVSEGSVVQFSSANFSLTAETEERNFPHGNEHLLNWARKEYGAVTSFTELKIARNIYIKVGEDQVFPPKCNIGKNFLSLNYLAEYLQPKAAEGCVMSSQPQNEEVHIIELITPNSNPYSAFQVDITIDIRPSQEDLEVVKNLILILKCKKSVNWVIKSFDVKGSLKIIAPNSIGFGKESERSMTMTKSIRDDIPSTQGNLVKWALDNGYSPITSYTMAPVANRFHLRLENNAEEMGDEEVHTIPPELRILLDPGALPALQNPPIRGGEGQNGGLPFPFPDISRRVWNEEGEDGLPRPKDPVIPSIQLFPGLREPEEVQGSVDIALSVKCDNEKMIVAVEKDSFQASGYSGMDVTLLDPTCKAKMNGTHFVLESPLNGCGTRPRWSALDGVVYYNSIVIQVPALGDSSGWPDGYEDLESGDNGFPGDMDEGDASLFTRPEIVVFNCSLQQVRNPSSFQEQPHGNITFNMELYNTDLFLVPSQGVFSVPENGHVYVEVSVTKAEQELGFAIQTCFISPYSNPDRMSHYTIIENICPKDESVKFYSPKRVHFPIPQADMDKKRFSFVFKPVFNTSLLFLQCELTLCTKMEKHPQKLPKCVPPDEACTSLDASIIWAMMQNKKTFTKPLAVIHHEAESKEKGPSMKEPNPISPPIFHGLDTLTVMGIAFAAFVIGALLTGALWYIYSHTGETAGRQQVPTSPPASENSSAAHSIGSTQSTPCSSSSTA
With B1 the binding [1] was “binds”.

B2: truncated TGFBRIII (21-787)-YFPc (domain or fragment, UniProt Q03167 21-787)
chain: GPEPGALCELSPVSASHPVQALMESFTVLSGCASRGTTGLPQEVHVLNLRTAGQGPGQLQREVTLHLNPISSVHIHHKSVVFLLNSPHPLVWHLKTERLATGVSRLFLVSEGSVVQFSSANFSLTAETEERNFPHGNEHLLNWARKEYGAVTSFTELKIARNIYIKVGEDQVFPPKCNIGKNFLSLNYLAEYLQPKAAEGCVMSSQPQNEEVHIIELITPNSNPYSAFQVDITIDIRPSQEDLEVVKNLILILKCKKSVNWVIKSFDVKGSLKIIAPNSIGFGKESERSMTMTKSIRDDIPSTQGNLVKWALDNGYSPITSYTMAPVANRFHLRLENNAEEMGDEEVHTIPPELRILLDPGALPALQNPPIRGGEGQNGGLPFPFPDISRRVWNEEGEDGLPRPKDPVIPSIQLFPGLREPEEVQGSVDIALSVKCDNEKMIVAVEKDSFQASGYSGMDVTLLDPTCKAKMNGTHFVLESPLNGCGTRPRWSALDGVVYYNSIVIQVPALGDSSGWPDGYEDLESGDNGFPGDMDEGDASLFTRPEIVVFNCSLQQVRNPSSFQEQPHGNITFNMELYNTDLFLVPSQGVFSVPENGHVYVEVSVTKAEQELGFAIQTCFISPYSNPDRMSHYTIIENICPKDESVKFYSPKRVHFPIPQADMDKKRFSFVFKPVFNTSLLFLQCELTLCTKMEKHPQKLPKCVPPDEACTSLDASIIWAMMQNKKTFTKPLAVIHHEAESKEKGPSMKEPNPISPPIFHGLDTLTV
For B2, the binding [2] was “binds”.
